For experiment [1], the target named is Specificity protein 1 (Sp1), endogenous (human (endogenous in HEK293T)) (UniProt P08047). The experiment is described as follows: co-IP; 293T cells with or without H2O2 exposure; IP with anti-Sp1 antibody or IgG; IB with anti-SENP3 antibody; both proteins endogenous.
The next experiment addresses FLAG-SENP3 (UniProt Q9H4L4). Nature of the experiment: co-IP; 293T cells transfected with FLAG-pcDNA or FLAG-SENP3 for 48 h; lysate, co-IP with M2 beads; IB with antibodies against the endogenous proteins.
The target in another experiment is RH-SENP3 (UniProt Q9H4L4). Nature of the experiment: co-IP; 293T cells transfected with RH-SENP3 or vector for 48 h; IP with anti-RH and with anti-Sp1 antibodies respectively, IB as indicated.
Experiment [2] addresses Specificity protein 1 (Sp1), endogenous (human (endogenous in HEK293T)) (UniProt P08047). The experiment is described as above.

Chains of the proteins cited; added tags and fusions are not shown.
UniProt P08047: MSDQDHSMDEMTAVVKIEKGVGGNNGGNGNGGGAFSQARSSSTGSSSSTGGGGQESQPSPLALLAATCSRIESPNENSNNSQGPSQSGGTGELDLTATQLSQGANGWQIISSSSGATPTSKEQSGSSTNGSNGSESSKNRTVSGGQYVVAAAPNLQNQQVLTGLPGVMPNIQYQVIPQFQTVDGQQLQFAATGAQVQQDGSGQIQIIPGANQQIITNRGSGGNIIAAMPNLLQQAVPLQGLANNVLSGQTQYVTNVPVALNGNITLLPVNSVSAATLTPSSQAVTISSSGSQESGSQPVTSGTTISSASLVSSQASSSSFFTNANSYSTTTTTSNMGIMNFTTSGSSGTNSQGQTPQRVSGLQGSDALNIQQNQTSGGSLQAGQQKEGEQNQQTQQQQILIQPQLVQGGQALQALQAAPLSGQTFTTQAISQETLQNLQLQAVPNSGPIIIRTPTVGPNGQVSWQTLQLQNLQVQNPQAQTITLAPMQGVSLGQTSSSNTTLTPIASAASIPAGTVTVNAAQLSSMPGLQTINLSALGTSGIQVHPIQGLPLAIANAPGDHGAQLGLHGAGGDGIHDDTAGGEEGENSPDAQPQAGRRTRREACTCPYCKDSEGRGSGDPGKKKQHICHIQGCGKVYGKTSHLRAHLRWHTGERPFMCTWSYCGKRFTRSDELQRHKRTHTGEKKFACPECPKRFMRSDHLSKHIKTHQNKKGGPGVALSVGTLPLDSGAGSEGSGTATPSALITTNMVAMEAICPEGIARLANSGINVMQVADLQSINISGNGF
UniProt Q9H4L4: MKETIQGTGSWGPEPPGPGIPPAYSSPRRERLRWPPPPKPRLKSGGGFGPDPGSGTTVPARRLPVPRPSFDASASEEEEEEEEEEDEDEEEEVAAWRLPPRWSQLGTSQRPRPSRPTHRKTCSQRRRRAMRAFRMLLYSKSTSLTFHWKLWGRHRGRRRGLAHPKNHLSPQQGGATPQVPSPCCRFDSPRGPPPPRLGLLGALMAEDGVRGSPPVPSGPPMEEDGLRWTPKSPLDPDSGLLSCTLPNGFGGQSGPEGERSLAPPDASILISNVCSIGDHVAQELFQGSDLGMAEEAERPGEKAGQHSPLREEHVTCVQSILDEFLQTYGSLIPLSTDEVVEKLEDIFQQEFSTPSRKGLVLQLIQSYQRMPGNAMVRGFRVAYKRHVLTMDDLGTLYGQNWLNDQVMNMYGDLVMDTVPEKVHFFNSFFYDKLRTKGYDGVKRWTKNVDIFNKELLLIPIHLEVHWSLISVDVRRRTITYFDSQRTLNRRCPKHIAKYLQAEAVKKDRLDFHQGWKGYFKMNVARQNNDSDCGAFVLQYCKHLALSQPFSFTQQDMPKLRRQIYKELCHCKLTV
UniProt P13010: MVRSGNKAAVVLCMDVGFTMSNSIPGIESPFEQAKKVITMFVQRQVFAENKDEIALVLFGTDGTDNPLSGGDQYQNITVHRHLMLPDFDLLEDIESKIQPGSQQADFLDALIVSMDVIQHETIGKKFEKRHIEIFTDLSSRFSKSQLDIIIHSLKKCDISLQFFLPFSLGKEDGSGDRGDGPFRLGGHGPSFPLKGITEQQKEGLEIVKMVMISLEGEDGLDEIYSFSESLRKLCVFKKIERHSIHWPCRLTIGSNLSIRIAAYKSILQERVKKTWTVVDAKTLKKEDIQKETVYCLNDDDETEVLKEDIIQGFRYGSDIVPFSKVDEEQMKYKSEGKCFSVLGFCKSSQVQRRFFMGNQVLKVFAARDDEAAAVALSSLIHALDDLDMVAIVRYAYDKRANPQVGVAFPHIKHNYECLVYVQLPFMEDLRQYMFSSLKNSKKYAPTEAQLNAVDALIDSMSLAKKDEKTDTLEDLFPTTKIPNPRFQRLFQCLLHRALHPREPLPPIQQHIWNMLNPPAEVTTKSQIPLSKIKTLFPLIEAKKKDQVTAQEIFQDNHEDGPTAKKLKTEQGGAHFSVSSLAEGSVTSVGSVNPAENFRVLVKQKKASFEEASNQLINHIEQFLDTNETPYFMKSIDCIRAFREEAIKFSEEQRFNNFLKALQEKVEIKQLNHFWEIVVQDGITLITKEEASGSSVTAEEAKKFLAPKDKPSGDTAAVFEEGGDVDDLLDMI

No constants are given. Whether binding was seen depends on the method and setting. In cells and extracts the contact can be indirect. Some entries that bind do so weakly or less than the wild type.

We go through four substances from article PMC4707158.

For “endogenous SENP3 (from UniProt Q9H4L4 1-574) (enzyme)”, the binding result in experiment [1] is reported as “binds”.
Consider “XRCC5 (Ku80) (from UniProt P13010 1-732)”, for which, in the experiment with FLAG-SENP3, the binding result is listed as “binds”.
As for “Specificity protein 1 (Sp1), endogenous (from UniProt P08047 1-785)”, the binding result in the experiment with RH-SENP3 is recorded as “binds”.
With “RH-SENP3 (from UniProt Q9H4L4 1-574) (enzyme)”, in experiment [2], the binding result was “binds”.
